# Experimental data published in patent US20250136997A1, “COMPOSITIONS FOR SEQUESTERING ISOAMYL AMINE AND METHODS OF USE THEREFOR” (University of Louisville Research Foundation, Inc., priority 2023, published 2025).
# Experiment: Analysis of metabolites in mice gut feces using LC-MS
# Parameters: species or system mouse
# Conditions: aged mice brains, microglia
structure (smiles),measurement,value
"CC(C)CCN [IAA, isoamylamine]",correlation with the expression of S100A8 (linear regression),significantly positively correlated
